Reference: PMC5703999, “The E. coli dicarboxylic acid transporters DauA act as a signal transducer by interacting with the DctA uptake system” (Scientific Reports, 2017)
These are yes or no findings as the source states them, for the method shown. Binding seen in cells or lysates may run through a third protein. Here binding means that the protein was enriched with, or labelled near, the bait; the list need not be complete. No binding means not detected with the bait. Sequences can lack the tags named with a protein.

By UniProt entry, the sequences of proteins in these tests, tags left out.
UniProt P0ABA0: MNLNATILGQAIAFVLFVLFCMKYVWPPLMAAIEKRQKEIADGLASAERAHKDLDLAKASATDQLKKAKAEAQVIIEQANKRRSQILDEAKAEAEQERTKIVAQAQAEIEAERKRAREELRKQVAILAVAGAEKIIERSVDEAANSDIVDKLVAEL

Molecular target: T1, Chromosomally encoded C-terminally His-tagged DauA (E. coli K-12) (UniProt P0AFR2)
T1 sequence: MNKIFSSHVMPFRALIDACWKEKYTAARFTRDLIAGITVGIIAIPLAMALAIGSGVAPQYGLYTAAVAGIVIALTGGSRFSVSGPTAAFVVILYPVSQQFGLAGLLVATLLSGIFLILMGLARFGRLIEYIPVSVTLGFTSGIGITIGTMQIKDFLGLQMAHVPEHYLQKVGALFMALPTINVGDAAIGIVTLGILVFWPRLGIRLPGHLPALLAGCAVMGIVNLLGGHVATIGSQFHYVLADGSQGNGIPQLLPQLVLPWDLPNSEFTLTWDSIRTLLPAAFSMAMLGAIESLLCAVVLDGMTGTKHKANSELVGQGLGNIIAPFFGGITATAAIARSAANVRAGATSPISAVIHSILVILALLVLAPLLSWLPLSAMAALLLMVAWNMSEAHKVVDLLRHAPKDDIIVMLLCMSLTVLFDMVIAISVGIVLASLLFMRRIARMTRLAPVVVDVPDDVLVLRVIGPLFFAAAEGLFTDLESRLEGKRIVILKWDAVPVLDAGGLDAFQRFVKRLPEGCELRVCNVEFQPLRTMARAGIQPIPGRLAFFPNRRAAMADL
Experiment: affinity purification with mass spectrometry; chromosomal DauA-H6 purified by IMAC (Co2+ HisTrap) from membranes extracted with 2% DDM, cells grown overnight in LB with fumarate; elution fractions of two biological replicates analysed by nLC-MS/MS; proteins found with the non-tagged strain subtracted

Question: For “ATP synthase subunit b (from UniProt P0ABA0 1-156)”, which binding is on record?
Answer: binds

B1: Cardiolipin synthase (CL synthase) (enzyme, UniProt P0A6H8 1-486)
chain: MTTVYTLVSWLAILGYWLLIAGVTLRILMKRRAVPSAMAWLLIIYILPLVGIIAYLAVGELHLGKRRAERARAMWPSTAKWLNDLKACKHIFAEENSSVAAPLFKLCERRQGIAGVKGNQLQLMTESDDVMQALIRDIQLARHNIEMVFYIWQPGGMADQVAESLMAAARRGIHCRLMLDSAGSVAFFRSPWPELMRNAGIEVVEALKVNLMRVFLRRMDLRQHRKMIMIDNYIAYTGSMNMVDPRYFKQDAGVGQWIDLMARMEGPIATAMGIIYSCDWEIETGKRILPPPPDVNIMPFEQASGHTIHTIASGPGFPEDLIHQALLTAAYSAREYLIMTTPYFVPSDDLLHAICTAAQRGVDVSIILPRKNDSMLVGWASRAFFTELLAAGVKIYQFEGGLLHTKSVLVDGELSLVGTVNLDMRSLWLNFEITLAIDDKGFGADLAAVQDDYISRSRLLDARLWLKRPLWQRVAERLFYFFSPLL
Question: B1 was tested. Which binding did it give?
Answer: binds

B2: PTS system fructose-specific EIIBC component (EIIBC-Fru) (protein, UniProt P20966 1-563)
chain: MKTLLIIDANLGQARAYMAKTLLGAAARKAKLEIIDNPNDAEMAIVLGDSIPNDSALNGKNVWLGDISRAVAHPELFLSEAKGHAKPYTAPVAATAPVAASGPKRVVAVTACPTGVAHTFMAAEAIETEAKKRGWWVKVETRGSVGAGNAITPEEVAAADLVIVAADIEVDLAKFAGKPMYRTSTGLALKKTAQELDKAVAEATPYEPAGKAQTATTESKKESAGAYRHLLTGVSYMLPMVVAGGLCIALSFAFGIEAFKEPGTLAAALMQIGGGSAFALMVPVLAGYIAFSIADRPGLTPGLIGGMLAVSTGSGFIGGIIAGFLAGYIAKLISTQLKLPQSMEALKPILIIPLISSLVVGLAMIYLIGKPVAGILEGLTHWLQTMGTANAVLLGAILGGMMCTDMGGPVNKAAYAFGVGLLSTQTYGPMAAIMAAGMVPPLAMGLATMVARRKFDKAQQEGGKAALVLGLCFISEGAIPFAARDPMRVLPCCIVGGALTGAISMAIGAKLMAPHGGLFVLLIPGAITPVLGYLVAIIAGTLVAGLAYAFLKRPEVDAVAKAA
Question: Which binding does the source give for B2 here?
Answer: binds

B3: High frequency lysogenization protein HflD (protein, UniProt P25746 1-213)
chain: MAKNYYDITLALAGICQSARLVQQLAHQGHCDADALHVSLNSIIDMNPSSTLAVFGGSEANLRVGLETLLGVLNASSRQGLNAELTRYTLSLMVLERKLSSAKGALDTLGNRINGLQRQLEHFDLQSETLMSAMAAIYVDVISPLGPRIQVTGSPAVLQSPQVQAKVRATLLAGIRAAVLWHQVGGGRLQLMFSRNRLTTQAKQILAHLTPEL
Question: How did the binding turn out when B3 was run?
Answer: binds

B4: Lipopolysaccharide export system ATP-binding protein LptB (protein, UniProt P0A9V1 1-241)
chain: MATLTAKNLAKAYKGRRVVEDVSLTVNSGEIVGLLGPNGAGKTTTFYMVVGIVPRDAGNIIIDDDDISLLPLHARARRGIGYLPQEASIFRRLSVYDNLMAVLQIRDDLSAEQREDRANELMEEFHIEHLRDSMGQSLSGGERRRVEIARALAANPKFILLDEPFAGVDPISVIDIKRIIEHLRDSGLGVLITDHNVRETLAVCERAYIVSQGHLIAHGTPTEILQDEHVKRVYLGEDFRL
Question: For B4, which binding is on record?
Answer: binds

B5: Nickel import ATP-binding protein NikE (protein, UniProt P33594 1-268)
chain: MTLLNISGLSHHYAHGGFNGKHQHQAVLNNVSLTLKSGETVALLGRSGCGKSTLARLLVGLESPAQGNISWRGEPLAKLNRAQRKAFRRDIQMVFQDSISAVNPRKTVREILREPMRHLLSLKKSEQLARASEMLKAVDLDDSVLDKRPPQLSGGQLQRVCLARALAVEPKLLILDEAVSNLDLVLQAGVIRLLKKLQQQFGTACLFITHDLRLVERFCQRVMVMDNGQIVETQVVGEKLTFSSDAGRVLQNAVLPAFPVRRRTTEKV
Question: B5 was tested. Which binding did it give?
Answer: binds

B6: Inner membrane protein YbhL (protein, UniProt P0AAC4 1-234)
chain: MDRFPRSDSIVQPRAGLQTYMAQVYGWMTVGLLLTAFVAWYAANSAAVMELLFTNRVFLIGLIIAQLALVIVLSAMIQKLSAGVTTMLFMLYSALTGLTLSSIFIVYTAASIASTFVVTAGMFGAMSLYGYTTKRDLSGFGNMLFMALIGIVLASLVNFWLKSEALMWAVTYIGVIVFVGLTAYDTQKLKNMGEQIDTRDTSNLRKYSILGALTLYLDFINLFLMLLRIFGNRR
Question: For B6, which binding is on record?
Answer: binds

B7: UPF0434 protein YcaR (protein, UniProt P0AAZ7 1-60)
chain: MDHRLLEIIACPVCNGKLWYNQEKQELICKLDNLAFPLRDGIPVLLETEARVLTADESKS
Question: For B7, which binding is on record?
Answer: binds

B8: Sensor protein ZraS (protein, UniProt P14377 1-465)
chain: MRFMQRSKDSLAKWLSAILPVVIVGLVGLFAVTVIRDYGRASEADRQALLEKGNVLIRALESGSRVGMGMRMHHVQQQALLEEMAGQPGVLWFAVTDAQGIIILHSDPDKVGRALYSPDEMQKLKPEENSRWRLLGKTETTPALEVYRLFQPMSAPWRHGMHNMPRCNGKAVPQVDAQQAIFIAVDASDLVATQSGEKRNTLIILFALATVLLASVLSFFWYRRYLRSRQLLQDEMKRKEKLVALGHLAAGVAHEIRNPLSSIKGLAKYFAERAPAGGEAHQLAQVMAKEADRLNRVVSELLELVKPTHLALQAVDLNTLINHSLQLVSQDANSREIQLRFTANDTLPEIQADPDRLTQVLLNLYLNAIQAIGQHGVISVTASESGAGVKISVTDSGKGIAADQLDAIFTPYFTTKAEGTGLGLAVVHNIVEQHGGTIQVASQEGKGSTFTLWLPVNITRKDPQG
Question: For B8, which binding is on record?
Answer: binds

B9: Aerobic C4-dicarboxylate transport protein DctA, endogenous (protein, UniProt P0A830 1-428)
chain: MKTSLFKSLYFQVLTAIAIGILLGHFYPEIGEQMKPLGDGFVKLIKMIIAPVIFCTVVTGIAGMESMKAVGRTGAVALLYFEIVSTIALIIGLIIVNVVQPGAGMNVDPATLDAKAVAVYADQAKDQGIVAFIMDVIPASVIGAFASGNILQVLLFAVLFGFALHRLGSKGQLIFNVIESFSQVIFGIINMIMRLAPIGAFGAMAFTIGKYGVGTLVQLGQLIICFYITCILFVVLVLGSIAKATGFSIFKFIRYIREELLIVLGTSSSESALPRMLDKMEKLGCRKSVVGLVIPTGYSFNLDGTSIYLTMAAVFIAQATNSQMDIVHQITLLIVLLLSSKGAAGVTGSGFIVLAATLSAVGHLPVAGLALILGIDRFMSEARALTNLVGNGVATIVVAKWVKELDHKKLDDVLNNRAPDGKTHELSS
Question: With B9 as the molecule, how does the binding read?
Answer: binds

B10: DcuS fused to the T18 or T25 domain of adenylate cyclase (natural protein, E. coli, UniProt P0AEC8 1-543, looked up)
chain: MRHSLPYRMLRKRPMKLSTTVILMVSAVLFSVLLVVHLIYFSQISDMTRDGLANKALAVARTLADSPEIRQGLQKKPQESGIQAIAEAVRKRNDLLFIVVTDMQSLRYSHPEAQRIGQPFKGDDILKALNGEENVAINRGFLAQALRVFTPIYDENHKQIGVVAIGLELSRVTQQINDSRWSIIWSVLFGMLVGLIGTCILVKVLKKILFGLEPYEISTLFEQRQAMLQSIKEGVVAVDDRGEVTLINDAAQELLNYRKSQDDEKLSTLSHSWSQVVDVSEVLRDGTPRRDEEITIKDRLLLINTVPVRSNGVIIGAISTFRDKTEVRKLMQRLDGLVNYADALRERSHEFMNKLHVILGLLHLKSYKQLEDYILKTANNYQEEIGSLLGKIKSPVIAGFLISKINRATDLGHTLILNSESQLPDSGSEDQVATLITTLGNLIENALEALGPEPGGEISVTLHYRHGWLHCEVNDDGPGIAPDKIDHIFDKGVSTKGSERGVGLALVKQQVENLGGSIAVESEPGIFTQFFVQIPWDGERSNR
notes: Membrane embedded sensor histidine kinase DcuS, E. coli; also called DcuS-T18; DcuS-T25; source: bacterial two-hybrid fusion (pUT18 or pKNT25), in E. coli BTH101 (cyaA-); not shown: T18 or T25 domain of Bordetella pertussis adenylate cyclase CyaA, C-terminal, kept
Question: For B10, which binding is on record?
Answer: no binding
